In PubChem BioAssay AID2685 (National Center for Advancing Translational Sciences (NCATS), 2010):
This is one part of the list. These are further read-outs of the screen, such as a control signal, another cell line or another target. No call is given for them. Compounds called inactive in the main read-out are mostly missing here. Words in brackets tell the shape of the fitted curve; partial curves, single points and poor fits give uncertain potencies.

Test: qHTS Assay for Lipid Storage Modulators in Drosophila S3 Cells;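 as to cell number change: cells counted by Cell Tracker Red CMTPX staining in the red channel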
Details: BODIPY lipid droplet fluorescence, 18-24 h; for cell number change: measured here: cell count max response, cells fed with added oleic acid
How it was run: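 Drosophila S3 cells loaded with oleic acid (400 uM, as added) and compounds at several concentrations; lipid droplets imaged by 488-nm laser-scanning cytometry, 500–530 nm intensity and object ratio to cell channel. Percent activity normalized to 20 uM Triacsin C.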

[1] = measured here: cell number channel AC50, cells fed with added oleic acid
[2] = measured here: lipid fluorescence (Fed channel) AC50, cells fed with added oleic acid

Compound	cell number change [%]	AC50 [1]	AC50 [2]
Cc1cccc(NC(=O)c2cccc(C(=O)Nc3cccc(C)n3)c2)n1	27.5	–	–
COCCCNC(=O)C1CC(=O)N(CCc2ccccc2)C1 (stereo unspecified)	-2.81	–	–
Oc1csc(Cc2nc(-c3ccc(-c4ccccc4)cc3)cs2)n1	-24.2	4.11 µM [rising, single point]	–
COc1ccc(-n2nc3c(N4CCC(C(=O)NCCc5ccco5)CC4)nnc(C)c3c2C)cc1	21.4	–	6.51 µM [rising, single point]
CC1CCC2(CC1)NC(=O)N(CC(=O)N1CCN(c3ccccc3)CC1)C2=O (stereo unspecified)	-26.2	–	29.1 µM [rising, single point]
CCNc1nnc(SCC(=O)c2cc(C)n(C3CC3)c2C)s1	79.8	5.17 µM [falling, single point]	–
Cc1ccc(CCNC(=O)CCn2c(=O)c3cccn3c3ccc(F)cc32)cc1	11.3	–	0.58 µM [falling, full curve]
O=C1CCC/C(=N/NC(=O)c2cc(NS(=O)(=O)c3cccs3)cc(NS(=O)(=O)c3cccs3)c2)C1	-16.3	–	–
Fc1cccc(F)c1-c1nc(-c2ccncc2)no1	-18.1	–	6.51 µM [falling, single point]
COc1cccc(N(C(C)=O)c2nc(C)cc(C)c2C#N)c1	–	5.17 µM [rising, single point]	–
Cc1cccn2c(=O)nc(SCC(=O)Nc3ccc4c(c3)OCO4)nc12	9	–	–
COc1ccc(NC(=O)c2cccc3ccccc23)cc1	20	–	29.1 µM [rising, single point]
Cc1ccc(C(=O)c2ccccc2C(=O)O)c(O)c1	43.3	6.51 µM [rising, single point]	6.51 µM [rising, single point]
Cc1cc(=O)[nH]c(SCc2cccc3cccnc23)n1	-5.28	0.259 µM [falling, full curve]	0.103 µM [falling, full curve, poor fit]
COc1ccc(CCN(C)C(=O)c2oc3ccccc3c2C)cc1OC	50.2	13 µM [rising, partial curve]	–
Oc1ccc(/C=N/NC(=S)Nc2cccnc2)cc1O	-3.92	–	32.6 µM [falling, single point]
O=[N+]([O-])c1ccccc1/C=N/NC1=NS(=O)(=O)c2ccccc21	20.7	–	32.6 µM [rising, single point]
O=C1CN(c2ccc(Cl)cc2)C2(CCCCC2)S1	5.52	–	11.6 µM [rising, partial curve]
CCOC(=O)CNC(=O)CN1CCCN(S(=O)(=O)c2ccc(Br)s2)CC1	23.9	–	–
CS(=O)(=O)N1CCN(c2ccc(C(=O)NC34CC5CC(CC(C5)C3)C4)cc2[N+](=O)[O-])CC1	23.1	–	9.2 µM [falling, partial curve, poor fit]
C=CCNc1nc(-c2cccs2)c(CC(=O)O)s1	22.1	–	6.51 µM [rising, full curve]

Single records, as listed above. Order of values: cell number change [%]	AC50 [1]	AC50 [2]
CCNc1nnc(SCC(=O)c2cc(C)n(C3CC3)c2C)s1 is listed with 79.8	5.17 µM [falling, single point]	–
O=C1CN(c2ccc(Cl)cc2)C2(CCCCC2)S1 is listed with 5.52	–	11.6 µM [rising, partial curve]
COCCCNC(=O)C1CC(=O)N(CCc2ccccc2)C1 (stereo unspecified) is listed with -2.81	–	–

The list goes on.

Compound	cell number change [%]	AC50 [1]	AC50 [2]
O=C(O)CN(Cc1ccccc1)S(=O)(=O)c1ccc2c(c1)OCCO2	-5.66	–	0.0651 µM [falling, full curve, poor fit]
CC1(C)SCC2C(=O)N3C(CSC3(C)C)C(=O)N21 (stereo unspecified)	14.7	–	3.66 µM [rising, single point]
Nc1nc(N2CCCCC2)nc(N2CCCCC2)n1	14.7	–	–
COCCN(C(=O)COC(=O)c1ccc(C)s1)c1c(N)n(Cc2ccccc2)c(=O)[nH]c1=O	82.8	16.4 µM [rising, single point]	–
COc1ccc2nc(N3CCCC3)[nH]c2c1	-0.491	–	–
COc1ccc(Cc2[nH]n3c(=O)c(Cl)c(C)nc3c2-c2ccccc2)cc1	-20.7	0.731 µM [rising, single point]	29.1 µM [falling, single point]
Cc1cc(C)cc(NC(=S)N2CCN(S(=O)(=O)c3ccccc3)CC2)c1	3.47	–	–
Cc1ccc(S(=O)(=O)NCc2cccnc2)cc1C(=O)N1CCCC1	-10.5	–	–
COc1ccc(-c2csc(NC(=O)CSCC(=O)Nc3cc(C)on3)n2)cc1	11.5	–	10.3 µM [falling, partial curve, poor fit]
Cc1cc(C)c(N=C2C(=O)Nc3ccccc32)c(C)c1	-34	29.1 µM [falling, single point]	16.4 µM [falling, single point]
C=CCn1c(SCC(=O)c2[nH]c(C)c(C(=O)OCC)c2C)nc2scc(-c3ccccc3)c2c1=O	17	–	–
COc1cccc(CNC(=O)CCS(=O)(=O)c2cc3c(cc2C)NC(=O)CO3)c1	13.3	–	0.00517 µM [rising, full curve, poor fit]
CC(=O)C1=C(C)Nc2ncnn2C1c1cccc(O)c1 (stereo unspecified)	27.8	–	0.58 µM [rising, single point]
CCOC(=O)C(=Cc1ccc(OCc2ccc([N+](=O)[O-])cc2)c(OC)c1)C(=O)OCC	–	2.59 µM [rising, partial curve, poor fit]	2.06 µM [rising, partial curve]
O=CC(=O)c1ccccc1	4.72	1.16 µM [falling, single point]	–
O=C(Nc1cc2c3c(c1)CC(=O)N3CCC2)c1ccc(Br)o1	–	1.16 µM [rising, full curve]	–
COc1ccc(N2CCN(CCOc3ccc4c(C)cc(=O)oc4c3)CC2)cc1	44.3	13 µM [rising, partial curve, poor fit]	20.6 µM [rising, partial curve]
CCOCCCN(CCC#N)C(=O)C1CCN(S(=O)(=O)c2ccc(-n3cnnn3)cc2)CC1	8.11	–	29.1 µM [rising, single point]
C#CCOc1coc(COC(=O)c2ccccc2)cc1=O	-11.8	–	6.51 µM [falling, single point]
Cc1ccc2c(c1)C1CN(C)CCC1N2C(=O)c1cccc(S(=O)(=O)N(C)C)c1 (stereo unspecified)	-79.2	–	–
COc1cc2c3nc4n(c(=O)c3n(CC(=O)NCC3CCCO3)c2cc1OC)CCS4 (stereo unspecified)	17.6	–	6.51 µM [rising, single point]
